Test results reported in patent publication US7105536B2, “Compounds” (SmithKline Beecham plc, priority 1999, dated 2006).
Some of these results come from one statement about several compounds together.

Target: novel receptor obtainable from rat forebrain tissue
Test: [3H]-Compound A radioligand binding assay
Conditions: competition with [3H]-Compound A (usually 20 nM), room temperature, 1 hour

SMILES: O=C(Nc1cc(Cl)c2c(c1)CNCC2)c1ccc(Cl)s1 [Example 1, N-(5-Chloro-1,2,3,4-tetrahydroisoquinolin-7-yl)-5-chlorothiophene-2-carboxamide]
- pKi: greater than 7
